# Results as given in publication doi:10.1101/2023.03.18.533296.
# T1: GFP-VAMP721 (VESICLE-ASSOCIATED MEMBRANE PROTEIN 721) (Arabidopsis thaliana) (UniProt Q9ZTW3)
# T1 sequence: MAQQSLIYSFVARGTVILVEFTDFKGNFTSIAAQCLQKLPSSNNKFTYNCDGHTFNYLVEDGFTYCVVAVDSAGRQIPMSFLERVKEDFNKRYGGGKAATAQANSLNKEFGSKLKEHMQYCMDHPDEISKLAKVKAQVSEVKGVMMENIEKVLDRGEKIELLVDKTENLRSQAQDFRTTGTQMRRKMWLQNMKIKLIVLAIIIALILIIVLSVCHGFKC
# Target: T1, GFP-VAMP721 (VESICLE-ASSOCIATED MEMBRANE PROTEIN 721) (Arabidopsis thaliana)
# Assay: affinity purification with mass spectrometry
row,Binder,binding
1,"VTI12 (protein, UniProt Q9SEL5 1-222) MSDVFEGYERQYCELSTNLSRKCHSASVLSNGEEKKGKIAEIKSGIDEADVLIRKMDLEARSLQPSAKAVCLSKLREYKSDLNQLKKEFKRVSSADAKPSSREELMESGMADLHAVSADQRGRLAMSVERLDQSSDRIRESRRLMLETEEVGISIVQDLSQQRQTLLHAHNKLHGVDDAIDKSKKVLTAMSRRMTRNKWIITSVIVALVLAIILIISYKLSH",binds
2,"NPSN11 (protein, UniProt Q944A9 1-265) MDPISAVSEELAEIEGQINDIFRALSNGFQKLEKIKDANRQSRQLEELTDKMRDCKSLIKDFDREIKSLESGNDASTNRMLNDRRQSMVKELNSYVALKKKYSSNLASNNKRVDLFDGPGEEHMEENVLLASNMSNQELMDKGNSMMDDTDQAIERGKKIVQETINVGTDTSAALKAQTEQMSRVVNELDSIHFSLKKASKLVKEIGRQVATDKCIMAFLFLIVIGVIAIIIVKIVNPNNKDIRDIPGVGLAPPAMNRRLLWNHY",binds
3,"NPSN12 (protein, UniProt Q9LNH6 1-265) MASELPMSPHLEQIHGEIRDHFRALANGFQRLDKIKDSSRQSKQLEELAEKMRDCKRLVKEFDRELKDGEARNSPQVNKQLNDEKQSMIKELNSYVALRKTYLNTLGNKKVELFDTGAGVSGEPTAEENVQMASTMSNQELVDAGMKRMDETDQAIERSKQVVHQTLEVGTQTASNLKGQTDQMGRVVNDLDTIQFSLKKASQLVKEIGRQVATDKCIMAFLFLIVCGVIAIIIVKIVNPNNKDIRDIPGLAPPAQSRKLLYFRE",binds
4,"SNAP33 (protein, UniProt Q9S7P9 1-300) MFGLRKSPANLPKHNSVDLKSSKPNPFDSDDESDNKHTLNPSKRTTSEPSLADMTNPFGGERVQKGDSSSSKQSLFSNSKYQYKNNFRDSGGIENQSVQELEGYAVYKAEETTKSVQGCLKVAEDIRSDATRTLVMLHDQGEQITRTHHKAVEIDHDLSRGEKLLGSLGGMFSKTWKPKKTRPINGPVVTRDDSPTRRVNHLEKREKLGLNSAPRGQSRTREPLPESADAYQRVEMEKAKQDDGLSDLSDILGELKNMAVDMGSEIEKQNKGLDHLHDDVDELNFRVQQSNQRGRRLLGK",binds
5,"SYP61 (protein, UniProt Q946Y7 1-245) MSSAQDPFYIVKEEIQDSIDKLQSTFHKWERISPDMGDQAHVAKELVATCGSIEWQVDELEKAITVAAKDPSWYGIDEAELEKRRRWTSNARTQVRNVKSGVLAGKVSSGAGHASEVRRELMRMPNSGEASRYDQYGGRDDDGFVQSESDRQMLLIKQQDEELDELSKSVQRIGGVGLTIHDELVAQERIIDELDTEMDSTKNRLEFVQKKVGMVMKKAGAKGQMMMICFLLVLFIILFVLVFLT",binds

# Results are given in words; binding and its absence hold for the method and conditions named. In cells and extracts the contact can be indirect. A yes stands for co-enrichment or nearness to the bait. Other partners may have been found. Where a sequence is shown, tags or fusion partners need not be part of it.
